# Data from article PMC10223534.
# Chains of the proteins cited; added tags and fusions are not shown.
# UniProt P17096: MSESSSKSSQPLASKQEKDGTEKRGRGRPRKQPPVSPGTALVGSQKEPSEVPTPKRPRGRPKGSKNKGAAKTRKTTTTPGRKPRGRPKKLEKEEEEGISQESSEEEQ
# No constants are given. Whether binding was seen depends on the method and setting. In cells and extracts the contact can be indirect. Some entries that bind do so weakly or less than the wild type.
# T1: Forkhead box M1 (FOXM1) (human (endogenous in H1299)) (UniProt Q08050)
# T1 sequence: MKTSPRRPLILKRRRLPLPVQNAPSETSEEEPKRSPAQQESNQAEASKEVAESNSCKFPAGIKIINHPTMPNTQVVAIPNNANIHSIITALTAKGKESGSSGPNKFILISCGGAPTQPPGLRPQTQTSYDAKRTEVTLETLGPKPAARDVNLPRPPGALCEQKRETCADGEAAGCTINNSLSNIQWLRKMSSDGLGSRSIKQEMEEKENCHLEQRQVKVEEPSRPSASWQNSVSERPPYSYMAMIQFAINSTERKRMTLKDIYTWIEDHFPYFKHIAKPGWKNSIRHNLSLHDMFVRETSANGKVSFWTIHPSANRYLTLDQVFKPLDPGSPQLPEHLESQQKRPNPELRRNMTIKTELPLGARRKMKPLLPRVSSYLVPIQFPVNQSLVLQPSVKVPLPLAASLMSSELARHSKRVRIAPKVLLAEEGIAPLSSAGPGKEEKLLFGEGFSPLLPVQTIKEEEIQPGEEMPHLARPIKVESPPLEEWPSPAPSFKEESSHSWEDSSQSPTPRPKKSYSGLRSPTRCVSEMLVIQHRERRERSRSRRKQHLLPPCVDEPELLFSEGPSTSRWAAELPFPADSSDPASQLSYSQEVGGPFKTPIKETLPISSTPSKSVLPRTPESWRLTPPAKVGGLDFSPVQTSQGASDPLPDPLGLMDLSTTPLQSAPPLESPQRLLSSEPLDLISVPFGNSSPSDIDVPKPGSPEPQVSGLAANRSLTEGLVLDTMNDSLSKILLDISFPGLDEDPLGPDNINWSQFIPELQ
# B1: Forkhead box M1 (FOXM1) (protein, UniProt Q08050 1-763)
# chain: T1 sequence
# Tests used:
# [1] = biological target: T1, Forkhead box M1 (FOXM1) (human (endogenous in H1299)); test: co-IP; endogenous proteins; cells lysed with cell X-Lysis buffer; IgG, FOXM1 or HMGA1 antibody with protein A/G agarose beads, overnight at 4 °C; eluted by boiling in SDS sample buffer, Western blot
# [2] = biological target: high-mobility group AT-Hook 1 (HMGA1) (human (endogenous in H1299)) (UniProt P17096); test: as above
Molecule,binding [1],binding [2]
high-mobility group AT-Hook 1 (HMGA1) (from UniProt P17096 1-107),binds,
B1,,binds
